Results from publication PMC9459147.
No constants are given. Whether binding was seen depends on the method and setting. Binding seen in cells or lysates may run through a third protein. A yes stands for co-enrichment or nearness to the bait. Other partners may have been found.

Amino acid sequences for entries named in this document (tags omitted). Residues count along the entry.
UniProt Q01705, residues 19-2531: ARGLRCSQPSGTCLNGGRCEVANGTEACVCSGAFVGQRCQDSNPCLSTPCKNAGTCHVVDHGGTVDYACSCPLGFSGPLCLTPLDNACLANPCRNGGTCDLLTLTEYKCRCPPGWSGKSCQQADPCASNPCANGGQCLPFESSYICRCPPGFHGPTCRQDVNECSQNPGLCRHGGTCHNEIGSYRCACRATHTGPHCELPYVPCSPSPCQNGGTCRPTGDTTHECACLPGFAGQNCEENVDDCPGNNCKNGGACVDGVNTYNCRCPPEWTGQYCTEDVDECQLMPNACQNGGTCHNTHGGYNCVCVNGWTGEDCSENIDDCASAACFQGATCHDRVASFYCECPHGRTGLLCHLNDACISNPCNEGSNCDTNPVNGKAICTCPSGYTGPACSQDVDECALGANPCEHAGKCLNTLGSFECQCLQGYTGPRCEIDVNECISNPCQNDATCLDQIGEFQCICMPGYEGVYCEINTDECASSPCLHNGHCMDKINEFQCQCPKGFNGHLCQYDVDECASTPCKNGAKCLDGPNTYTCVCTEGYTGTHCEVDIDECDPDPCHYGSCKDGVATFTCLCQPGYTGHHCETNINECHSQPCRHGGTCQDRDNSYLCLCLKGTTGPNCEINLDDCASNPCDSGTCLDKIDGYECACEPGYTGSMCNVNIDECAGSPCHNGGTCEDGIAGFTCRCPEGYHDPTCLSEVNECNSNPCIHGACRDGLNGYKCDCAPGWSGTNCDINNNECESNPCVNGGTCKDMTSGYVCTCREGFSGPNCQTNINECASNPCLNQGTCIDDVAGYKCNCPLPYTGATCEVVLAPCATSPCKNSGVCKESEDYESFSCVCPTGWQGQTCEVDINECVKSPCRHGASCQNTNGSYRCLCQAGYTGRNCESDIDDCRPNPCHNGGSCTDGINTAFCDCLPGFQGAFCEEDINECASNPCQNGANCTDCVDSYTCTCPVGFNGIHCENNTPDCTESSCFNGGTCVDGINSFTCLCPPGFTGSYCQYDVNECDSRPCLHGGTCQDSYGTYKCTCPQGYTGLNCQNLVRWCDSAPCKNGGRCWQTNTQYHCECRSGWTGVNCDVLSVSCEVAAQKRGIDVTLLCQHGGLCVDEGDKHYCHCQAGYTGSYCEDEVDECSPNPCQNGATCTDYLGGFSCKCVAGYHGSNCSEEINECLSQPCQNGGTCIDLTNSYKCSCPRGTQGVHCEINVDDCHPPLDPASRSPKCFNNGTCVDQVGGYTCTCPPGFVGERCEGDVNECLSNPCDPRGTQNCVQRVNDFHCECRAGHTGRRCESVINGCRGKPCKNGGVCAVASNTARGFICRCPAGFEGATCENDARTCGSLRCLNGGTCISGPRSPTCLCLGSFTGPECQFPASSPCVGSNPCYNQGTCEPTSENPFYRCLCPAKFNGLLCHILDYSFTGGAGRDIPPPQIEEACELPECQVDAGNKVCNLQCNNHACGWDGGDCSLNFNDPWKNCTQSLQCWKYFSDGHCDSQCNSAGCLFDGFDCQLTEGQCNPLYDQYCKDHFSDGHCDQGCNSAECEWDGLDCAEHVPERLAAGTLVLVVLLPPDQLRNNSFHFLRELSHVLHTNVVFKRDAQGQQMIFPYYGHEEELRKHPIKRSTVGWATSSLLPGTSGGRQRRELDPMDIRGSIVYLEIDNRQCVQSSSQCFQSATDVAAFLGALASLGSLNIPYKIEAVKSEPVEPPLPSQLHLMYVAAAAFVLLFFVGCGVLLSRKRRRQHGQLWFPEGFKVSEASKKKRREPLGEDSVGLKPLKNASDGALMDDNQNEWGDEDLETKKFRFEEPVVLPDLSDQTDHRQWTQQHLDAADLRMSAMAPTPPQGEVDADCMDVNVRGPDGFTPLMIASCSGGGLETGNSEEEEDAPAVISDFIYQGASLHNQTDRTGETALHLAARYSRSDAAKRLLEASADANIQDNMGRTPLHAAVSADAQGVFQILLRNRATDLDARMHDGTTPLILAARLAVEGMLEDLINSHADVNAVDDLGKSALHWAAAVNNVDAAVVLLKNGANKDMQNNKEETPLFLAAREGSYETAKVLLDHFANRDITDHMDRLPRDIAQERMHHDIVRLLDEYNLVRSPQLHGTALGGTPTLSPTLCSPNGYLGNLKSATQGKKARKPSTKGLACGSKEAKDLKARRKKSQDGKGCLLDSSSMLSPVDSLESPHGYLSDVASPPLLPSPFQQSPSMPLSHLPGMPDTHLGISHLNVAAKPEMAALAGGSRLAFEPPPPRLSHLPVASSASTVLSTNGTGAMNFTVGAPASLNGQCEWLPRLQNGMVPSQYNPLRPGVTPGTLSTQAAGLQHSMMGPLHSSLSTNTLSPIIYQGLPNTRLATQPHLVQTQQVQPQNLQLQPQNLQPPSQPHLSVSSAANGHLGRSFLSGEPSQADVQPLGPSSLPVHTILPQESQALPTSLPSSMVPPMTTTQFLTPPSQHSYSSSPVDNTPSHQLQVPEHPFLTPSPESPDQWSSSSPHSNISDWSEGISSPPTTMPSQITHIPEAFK
UniProt Q3TTA7: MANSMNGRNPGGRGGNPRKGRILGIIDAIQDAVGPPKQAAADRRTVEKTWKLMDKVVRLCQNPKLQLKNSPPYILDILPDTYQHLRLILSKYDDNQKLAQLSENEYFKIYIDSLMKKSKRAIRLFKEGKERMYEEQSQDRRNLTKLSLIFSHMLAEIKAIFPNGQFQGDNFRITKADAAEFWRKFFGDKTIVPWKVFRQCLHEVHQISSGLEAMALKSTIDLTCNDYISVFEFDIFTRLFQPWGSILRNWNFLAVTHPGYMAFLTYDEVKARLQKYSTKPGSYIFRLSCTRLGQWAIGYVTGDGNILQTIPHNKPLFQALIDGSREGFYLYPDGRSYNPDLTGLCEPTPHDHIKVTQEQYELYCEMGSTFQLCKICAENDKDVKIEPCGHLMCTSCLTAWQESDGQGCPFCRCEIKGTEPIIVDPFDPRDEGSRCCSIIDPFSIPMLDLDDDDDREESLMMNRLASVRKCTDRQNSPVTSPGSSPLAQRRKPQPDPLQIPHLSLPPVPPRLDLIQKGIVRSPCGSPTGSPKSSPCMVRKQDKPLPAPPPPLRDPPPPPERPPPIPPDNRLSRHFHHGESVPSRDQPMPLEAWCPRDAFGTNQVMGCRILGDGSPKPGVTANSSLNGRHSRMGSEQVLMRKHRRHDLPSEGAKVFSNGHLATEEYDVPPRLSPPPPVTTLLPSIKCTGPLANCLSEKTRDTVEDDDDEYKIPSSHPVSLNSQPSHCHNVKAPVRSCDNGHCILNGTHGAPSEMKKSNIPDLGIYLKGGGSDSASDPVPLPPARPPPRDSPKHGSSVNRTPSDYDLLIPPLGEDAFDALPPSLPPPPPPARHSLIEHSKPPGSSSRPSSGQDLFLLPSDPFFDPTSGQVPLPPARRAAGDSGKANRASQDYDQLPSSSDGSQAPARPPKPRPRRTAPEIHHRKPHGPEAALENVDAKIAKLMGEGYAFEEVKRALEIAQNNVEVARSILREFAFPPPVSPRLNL
UniProt Q8BGG7: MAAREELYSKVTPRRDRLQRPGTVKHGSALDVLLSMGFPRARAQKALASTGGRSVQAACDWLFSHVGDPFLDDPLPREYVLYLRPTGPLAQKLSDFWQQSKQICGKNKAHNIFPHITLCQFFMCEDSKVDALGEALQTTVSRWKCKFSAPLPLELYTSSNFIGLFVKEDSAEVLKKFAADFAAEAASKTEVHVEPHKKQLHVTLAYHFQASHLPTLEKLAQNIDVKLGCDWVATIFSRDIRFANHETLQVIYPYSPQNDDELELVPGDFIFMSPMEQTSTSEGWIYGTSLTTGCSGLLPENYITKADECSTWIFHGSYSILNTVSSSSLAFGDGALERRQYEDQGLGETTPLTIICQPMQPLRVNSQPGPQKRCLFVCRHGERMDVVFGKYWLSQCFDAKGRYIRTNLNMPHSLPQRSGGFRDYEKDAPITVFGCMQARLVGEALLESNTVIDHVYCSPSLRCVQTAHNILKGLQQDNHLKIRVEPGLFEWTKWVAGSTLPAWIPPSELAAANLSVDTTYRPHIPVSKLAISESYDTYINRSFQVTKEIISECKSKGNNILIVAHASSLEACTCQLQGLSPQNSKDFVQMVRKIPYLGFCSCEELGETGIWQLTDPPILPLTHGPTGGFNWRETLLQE

Target: Notch1 (endogenous, primary mouse CD8+ T-cells) (mouse (endogenous in primary CD8+ T-cells)) (UniProt Q01705)
Experiment: affinity purification with mass spectrometry; Notch1 immunoprecipitated (MS-compatible magnetic IP kit) from lysates of primary mouse CD8+ T-cells stimulated with anti-CD3/CD28 and treated with vehicle, 1 µM ZM-241385, 1 µM CGS-21680 or both; trypsin digest, DIA on an Orbitrap Exploris 480

Row | binding | Substance
1 | binds | Casitas B-lineage lymphoma b (Cbl-b), endogenous (from UniProt Q3TTA7 1-982) (enzyme)
2 | binds | Suppressor of T-cell receptor signaling 1 (STS-1), endogenous (from UniProt Q8BGG7 1-638) (enzyme)
